{"sequences": {"note": "Protein sequences, listed by entry. Tags and fused reporters are not part of them. Lines headed by an entry give the natural chain unless they say otherwise; changes in a name come on top.", "UniProt P03372": "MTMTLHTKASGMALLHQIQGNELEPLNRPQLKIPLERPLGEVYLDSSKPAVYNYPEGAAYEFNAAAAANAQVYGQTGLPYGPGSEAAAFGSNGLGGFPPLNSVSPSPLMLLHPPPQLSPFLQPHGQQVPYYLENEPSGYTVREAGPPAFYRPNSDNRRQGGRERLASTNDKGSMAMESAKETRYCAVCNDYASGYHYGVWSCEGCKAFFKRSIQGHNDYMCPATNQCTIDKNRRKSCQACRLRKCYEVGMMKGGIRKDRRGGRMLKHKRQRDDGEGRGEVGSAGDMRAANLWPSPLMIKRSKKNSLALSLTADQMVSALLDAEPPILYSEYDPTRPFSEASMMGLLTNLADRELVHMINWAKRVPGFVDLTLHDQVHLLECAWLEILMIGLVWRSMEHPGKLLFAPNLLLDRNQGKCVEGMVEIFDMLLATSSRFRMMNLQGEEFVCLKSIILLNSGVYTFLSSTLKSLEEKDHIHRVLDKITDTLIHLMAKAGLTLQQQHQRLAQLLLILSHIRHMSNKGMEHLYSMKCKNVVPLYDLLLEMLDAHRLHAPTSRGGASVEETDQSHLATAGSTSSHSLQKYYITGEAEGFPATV"}, "source": "paper PMC6515683", "biological_target": "estrogen receptor-alpha (human (endogenous in MCF7 and T47D)) (UniProt P03372)", "assay": "co-IP; ERα (F10) antibody sc-8002 on Dynabeads Protein A, incubated overnight at 4 °C with nuclear lysate of MCF7 or T47D cells in estrogenic conditions; western blot for GRHL2", "note": "These are yes or no findings as the source states them, for the method shown. Binding seen in cells or lysates may run through a third protein. Some entries that bind do so weakly or less than the wild type.", "data": [{"binder": "GRHL2 (protein, UniProt Q6ISB3 1-625) MSQESDNNKRLVALVPMPSDPPFNTRRAYTSEDEAWKSYLENPLTAATKAMMSINGDEDSAAALGLLYDYYKVPRDKRLLSVSKASDSQEDQEKRNCLGTSEAQSNLSGGENRVQVLKTVPVNLSLNQDHLENSKREQYSISFPESSAIIPVSGITVVKAEDFTPVFMAPPVHYPRGDGEEQRVVIFEQTQYDVPSLATHSAYLKDDQRSTPDSTYSESFKDAATEKFRSASVGAEEYMYDQTSSGTFQYTLEATKSLRQKQGEGPMTYLNKGQFYAITLSETGDNKCFRHPISKVRSVVMVVFSEDKNRDEQLKYWKYWHSRQHTAKQRVLDIADYKESFNTIGNIEEIAYNAVSFTWDVNEEAKIFITVNCLSTDFSSQKGVKGLPLMIQIDTYSYNNRSNKPIHRAYCQIKVFCDKGAERKIRDEERKQNRKKGKGQASQTQCNSSSDGKLAAIPLQKKSDITYFKTMPDLHSQPVLFIPDVHFANLQRTGQVYYNTDDEREGGSVLVKRMFRPMEEEFGPVPSKQMKEEGTKRVLLYVRKETDDVFDALMLKSPTVKGLMEAISEKYGLPVEKIAKLYKKSKKGILVNMDDNIIEHYSNEDTFILNMESMVEGFKVTLMEI", "values": [{"measurement": "binding", "result": "binds"}]}]}
